Source: article PMC9959367
Results are given in words; binding and its absence hold for the method and conditions named. In cells and extracts the contact can be indirect. Some entries that bind do so weakly or less than the wild type. Blank lines part the entries; values can stand above or below the substance they belong to.

Amino acid sequences for entries named in this document (tags omitted). A change or cut given only in a name is not applied to a line headed by its entry. Chains listed by the source or under a name are the forms on record and can include a tag or linker.
UniProt P26678: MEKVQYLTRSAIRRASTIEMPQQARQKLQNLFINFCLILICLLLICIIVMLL
SERCA2a, endogenous in human heart (human (endogenous in human heart)) (P16615-2, form named): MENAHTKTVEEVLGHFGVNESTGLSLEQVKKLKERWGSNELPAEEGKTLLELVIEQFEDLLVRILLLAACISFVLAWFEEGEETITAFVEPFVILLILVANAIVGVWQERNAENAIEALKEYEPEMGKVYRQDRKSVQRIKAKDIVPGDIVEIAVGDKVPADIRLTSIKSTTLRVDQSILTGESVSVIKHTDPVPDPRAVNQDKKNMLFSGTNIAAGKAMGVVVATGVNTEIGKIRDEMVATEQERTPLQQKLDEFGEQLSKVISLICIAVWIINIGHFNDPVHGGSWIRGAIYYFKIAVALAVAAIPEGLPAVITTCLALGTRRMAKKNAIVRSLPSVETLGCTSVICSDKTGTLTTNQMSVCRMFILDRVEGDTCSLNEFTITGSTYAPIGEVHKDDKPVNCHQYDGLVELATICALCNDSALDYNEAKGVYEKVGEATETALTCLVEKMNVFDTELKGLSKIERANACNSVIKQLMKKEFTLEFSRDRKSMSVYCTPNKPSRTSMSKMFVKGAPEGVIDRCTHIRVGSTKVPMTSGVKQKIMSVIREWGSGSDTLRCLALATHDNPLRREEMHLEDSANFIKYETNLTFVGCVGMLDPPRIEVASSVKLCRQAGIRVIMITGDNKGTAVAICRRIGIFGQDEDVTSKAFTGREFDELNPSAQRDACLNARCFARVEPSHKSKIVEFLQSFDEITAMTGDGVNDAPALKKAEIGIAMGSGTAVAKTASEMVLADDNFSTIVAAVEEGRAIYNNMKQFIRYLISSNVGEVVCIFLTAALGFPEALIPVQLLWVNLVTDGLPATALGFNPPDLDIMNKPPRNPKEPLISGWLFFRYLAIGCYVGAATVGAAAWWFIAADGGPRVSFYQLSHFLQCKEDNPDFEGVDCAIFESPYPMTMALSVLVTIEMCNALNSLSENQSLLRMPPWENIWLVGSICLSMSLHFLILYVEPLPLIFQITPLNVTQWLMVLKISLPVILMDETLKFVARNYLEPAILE
UniProt Q09472: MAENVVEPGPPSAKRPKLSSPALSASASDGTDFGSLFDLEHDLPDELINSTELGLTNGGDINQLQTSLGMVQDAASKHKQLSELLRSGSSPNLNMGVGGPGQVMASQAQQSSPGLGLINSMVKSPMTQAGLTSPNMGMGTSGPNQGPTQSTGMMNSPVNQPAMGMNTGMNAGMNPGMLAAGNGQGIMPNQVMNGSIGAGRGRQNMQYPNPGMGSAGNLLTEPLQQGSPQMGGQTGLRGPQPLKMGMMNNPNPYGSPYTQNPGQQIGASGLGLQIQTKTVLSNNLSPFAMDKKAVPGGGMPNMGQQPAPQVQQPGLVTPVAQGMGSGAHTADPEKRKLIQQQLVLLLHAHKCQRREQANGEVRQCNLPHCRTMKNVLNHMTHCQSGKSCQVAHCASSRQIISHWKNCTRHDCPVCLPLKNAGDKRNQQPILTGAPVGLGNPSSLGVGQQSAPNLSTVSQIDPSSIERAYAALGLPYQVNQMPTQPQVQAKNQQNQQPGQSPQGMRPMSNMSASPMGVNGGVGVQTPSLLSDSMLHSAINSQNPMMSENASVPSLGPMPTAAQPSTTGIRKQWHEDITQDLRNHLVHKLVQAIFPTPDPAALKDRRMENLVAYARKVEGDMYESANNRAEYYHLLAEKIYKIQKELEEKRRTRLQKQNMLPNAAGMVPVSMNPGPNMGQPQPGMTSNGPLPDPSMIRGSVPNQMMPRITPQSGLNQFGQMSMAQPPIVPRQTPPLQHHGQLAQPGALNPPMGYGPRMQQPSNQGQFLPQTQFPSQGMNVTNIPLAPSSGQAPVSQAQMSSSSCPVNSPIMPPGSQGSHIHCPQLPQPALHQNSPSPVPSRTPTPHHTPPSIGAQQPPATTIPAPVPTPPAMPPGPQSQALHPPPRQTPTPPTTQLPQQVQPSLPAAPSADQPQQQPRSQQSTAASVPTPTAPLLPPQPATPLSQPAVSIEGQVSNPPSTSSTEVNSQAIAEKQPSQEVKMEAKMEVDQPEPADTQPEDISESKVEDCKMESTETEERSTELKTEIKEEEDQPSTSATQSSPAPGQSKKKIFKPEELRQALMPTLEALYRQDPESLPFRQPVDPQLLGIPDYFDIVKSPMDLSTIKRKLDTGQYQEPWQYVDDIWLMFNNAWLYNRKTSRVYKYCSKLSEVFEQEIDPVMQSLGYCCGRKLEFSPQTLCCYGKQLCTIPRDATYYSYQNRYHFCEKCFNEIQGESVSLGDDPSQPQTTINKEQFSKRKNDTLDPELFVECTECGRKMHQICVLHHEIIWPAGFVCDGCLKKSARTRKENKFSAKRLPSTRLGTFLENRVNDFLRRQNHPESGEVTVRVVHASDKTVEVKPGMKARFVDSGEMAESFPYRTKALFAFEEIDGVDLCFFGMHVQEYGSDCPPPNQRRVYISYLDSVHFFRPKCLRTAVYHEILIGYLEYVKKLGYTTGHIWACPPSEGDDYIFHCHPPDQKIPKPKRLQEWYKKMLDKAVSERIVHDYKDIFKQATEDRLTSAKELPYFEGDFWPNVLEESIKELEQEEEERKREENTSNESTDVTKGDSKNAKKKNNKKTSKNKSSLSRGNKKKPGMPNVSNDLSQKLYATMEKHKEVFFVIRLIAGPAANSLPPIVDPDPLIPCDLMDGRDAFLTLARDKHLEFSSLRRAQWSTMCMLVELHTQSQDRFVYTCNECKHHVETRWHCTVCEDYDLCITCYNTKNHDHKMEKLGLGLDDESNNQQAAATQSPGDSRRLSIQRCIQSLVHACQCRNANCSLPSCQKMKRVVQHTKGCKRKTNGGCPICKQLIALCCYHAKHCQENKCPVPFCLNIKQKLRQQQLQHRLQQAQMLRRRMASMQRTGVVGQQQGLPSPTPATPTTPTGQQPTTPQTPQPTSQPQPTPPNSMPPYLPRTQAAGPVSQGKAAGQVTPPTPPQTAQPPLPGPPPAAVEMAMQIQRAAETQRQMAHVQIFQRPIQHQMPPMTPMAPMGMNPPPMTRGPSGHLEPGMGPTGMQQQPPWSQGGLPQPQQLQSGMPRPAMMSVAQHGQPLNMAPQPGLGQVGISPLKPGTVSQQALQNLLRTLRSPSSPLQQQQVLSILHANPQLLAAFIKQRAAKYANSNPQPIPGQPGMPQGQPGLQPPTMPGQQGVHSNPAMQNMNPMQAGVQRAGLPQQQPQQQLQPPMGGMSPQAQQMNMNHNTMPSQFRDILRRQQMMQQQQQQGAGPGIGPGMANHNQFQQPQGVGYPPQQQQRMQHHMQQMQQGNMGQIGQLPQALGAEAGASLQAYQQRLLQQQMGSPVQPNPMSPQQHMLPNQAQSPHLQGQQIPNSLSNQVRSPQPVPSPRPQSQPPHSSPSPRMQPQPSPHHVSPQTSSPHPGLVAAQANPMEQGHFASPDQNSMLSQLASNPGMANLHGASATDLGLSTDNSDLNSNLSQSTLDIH

Columns and labels:
phospholamban (PLN) = phospholamban (PLN) (UniProt P26678); experiment: co-IP; IP experiments in overexpression systems, told in the discussion only, data not shown; which partner was precipitated is not told
[1] = target: cardiac sarco-endoplasmic reticulum Ca2+ ATPase (SERCA2a), wild type, expressed in HEK293 cells (UniProt P16615); experiment: co-IP; HEK293 cells transfected with SERCA2a alone or with different dosages of p300 plasmid; sodium butyrate treatment; lysates incubated with anti-Flag agarose beads, blotted with anti-p300 antibody
[2] = target: cardiac sarco-endoplasmic reticulum Ca2+ ATPase (SERCA2a), wild type, expressed in HEK293 cells (UniProt P16615); experiment: co-IP; HEK293 cells transfected with SERCA2a alone or with an acetyltransferase (p300, CBP, PCAF, GCN5); lysates in RIPA buffer immunoprecipitated with anti-SERCA2a antibody, blotted with anti-p300 antibody
[3] = target: SERCA2a, endogenous in human heart (human (endogenous in human heart)) (UniProt P16615); experiment: co-IP; endogenous proteins; SERCA2a immunoprecipitated from normal and heart failure human patient hearts, RIPA buffer

- binding (phospholamban (PLN)): binds
Substance: cardiac sarco-endoplasmic reticulum Ca2+ ATPase (SERCA2a), wild type, expressed in HEK293 cells (from UniProt P16615-2 1-997)

- binding [1]: binds
- binding [2]: binds
Substance: p300 acetyltransferase, expressed in HEK293 cells (from UniProt Q09472 1-2414) (enzyme)

- binding [3]: binds
Substance: p300, endogenous in human heart (from UniProt Q09472 1-2414) (enzyme)
